# Assay results as given in the supplement of paper PMC10338343.
# ± gives the standard deviation. The entries are a selection whose mix differs from that of the whole data set. Many of these values have a large error. This is one part of the list.
# Tests used:
# [1] = test system: MILI (PIWIL2) piRISC loaded with L1MC piRNA (26 nt); assay: pre-steady-state target cleavage rate (min^-1); higher = faster piRNA-guided slicing of the target; settings: guide: L1MC piRNA 5'p-UAACUAAAUACUAUGCAAGCUGUAGG
# Method in brief: (§1)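 Active affinity-purified piRISC (1 nM) loaded with one synthetic guide was mixed with a transcribed, DNA-blocked target RNA library (0.1 nM), with or without 500 nM GTSF1 partner protein, in HEPES–potassium acetate buffer at 33 °C for 0–8 or 0–960 min. Uncleaved targets were sequenced, normalised to depth and to weakly complementary targets, and pooled across three trials, with k3 capped at 0.0001 min^-1. The pre-steady-state cleavage rate was determined with a burst-and-steady-state fit.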
# [2] = test system: MIWI (PIWIL1) piRISC loaded with L1MC piRNA (30 nt); assay: as above; settings: guide: L1MC piRNA 5'p-UAACUAAAUACUAUGCAAGCUGUAGGUCCU
# Method in brief: as §1
# [3] = test system: EfPiwi piRISC loaded with L1MC piRNA (26 nt); assay: pre-steady-state target cleavage rate (min^-1); guide: L1MC piRNA 5'p-UAACUAAAUACUAUGCAAGCUGUAGG; MIWI and MILI are mouse PIWI proteins and EfPiwi is from a freshwater sponge; tags in brackets are library labels; higher = faster piRNA-guided slicing of the target
# Method in brief: as §1
# [4] = auxiliary factor: 500 nM mouse GTSF1
# [5] = auxiliary factor: none (no GTSF1)
# [6] = auxiliary factor: 500 nM Ephydatia muelleri Gtsf1
Sequence,"pre-steady-state target cleavage rate [1, 4]","pre-steady-state target cleavage rate [1, 5]","pre-steady-state target cleavage rate [2, 4]","pre-steady-state target cleavage rate [2, 5]","pre-steady-state target cleavage rate [3, 6]",pre-steady-state target cleavage rate ([3]; auxiliary factor: none (no Gtsf1))
UCCUCCUCCAGCUUGCAUAGUAUUUAGUUA,0.265 ± 0.019,0.00605 ± 0.0026,1.12 ± 0.027,0.0546 ± 0.0092,0.194 ± 0.056,–
UCCUGCUACAGCUUGCAUAUUAUUUAGUUA,0.11 ± 0.016,0.00413 ± 0.0024,1.31 ± 0.066,0.0449 ± 0.0088,0.0119 ± 0.0034,–
UCCUGGAUGUCGAAGCUUAGUAUUUAGUUA,0.00685 ± 0.0029,0.0015 ± 0.0041,0.000504 ± 0.014,0.000744 ± 0.01,0.00107 ± 0.0037,–
UCCUGGAUGAGCUUGCAAUCUAUUUACAAA,0.000123 ± 0.048,0.00011 ± 0.033,0.000129 ± 0.025,0.000676 ± 0.0079,0.000238 ± 0.016,–
UCCUGGAUGUGCUUGCAUAGAAUAUAGUUA,0.00814 ± 0.0043,0.00119 ± 0.006,0.00334 ± 0.0045,0.00175 ± 0.005,–,0.000129 ± 0.069
UCCUGGAUCAGCUUGGUAAGUAUUUAGUUA,0.0316 ± 0.0076,0.00588 ± 0.0023,0.00341 ± 0.0035,0.00186 ± 0.0034,0.000714 ± 0.0099,–
UCCUGGAUGUGCUUGCAUAGUUAUUAGUAA,0.00196 ± 0.0044,0.00158 ± 0.0053,0.00129 ± 0.0066,0.00126 ± 0.0034,0.000336 ± 0.013,–
UCCUGGAUCAGCUUGGUUAGUAUUUACAAA,0.00756 ± 0.0052,0.00109 ± 0.005,0.00114 ± 0.01,0.00087 ± 0.0052,0.000345 ± 0.0097,–
UCCUGGAUGUCGUUGCAUAGUAUAAAGUUA,0.0728 ± 0.018,0.00407 ± 0.0022,0.00117 ± 0.0079,0.00189 ± 0.0047,0.000349 ± 0.0077,–
UCCUGGAUCAGCUUGCAUAGAUUUAGUUA,0.00178 ± 0.0063,0.000703 ± 0.0073,0.00212 ± 0.0062,0.0012 ± 0.0054,0.00198 ± 0.0033,–
UCCUGGAUGUCGUAGCAAAGUAUUUAGUUA,0.00343 ± 0.0037,0.00108 ± 0.0051,0.00117 ± 0.0073,0.00109 ± 0.0062,0.00129 ± 0.008,–
UCCUGGAUGAGCUUGCAGUAGUAUUUAGUUA,0.00142 ± 0.0066,0.000837 ± 0.008,0.00111 ± 0.0085,0.00117 ± 0.0081,0.00118 ± 0.0085,–
UCCUGGAUGUGCUUGCAUAGUAUUUUGAAA,0.00858 ± 0.0064,0.000895 ± 0.0066,0.0177 ± 0.0092,0.00406 ± 0.0024,0.00065 ± 0.0094,–
UCCUGGAUGAGCUUGCAUAGAUUUAGUUA,0.00162 ± 0.0074,0.00152 ± 0.0037,0.00199 ± 0.0078,0.00192 ± 0.0039,0.000783 ± 0.0046,–
UCCUCCUUCAGCUUGCUUAGUAUUUAGUUA,0.286 ± 0.015,0.00762 ± 0.002,1.31 ± 0.054,0.0243 ± 0.0053,0.0651 ± 0.022,–
UCCUGGAUGUCGAACCAAAGUAUUUAGUAA,0.000399 ± 0.017,< 0.0001,0.000314 ± 0.023,0.000121 ± 0.022,0.000114 ± 0.023,–
UCCUGGAUCCAGCUUGCAUAGUAUUUAGUUA,0.3 ± 0.017,0.00437 ± 0.003,1.31 ± 0.081,0.0546 ± 0.016,0.126 ± 0.022,–
UCCUGGUUCAGCUUGGAUAGUAUUUAGUUA,0.191 ± 0.022,0.013 ± 0.0035,0.791 ± 0.063,0.0603 ± 0.014,0.00792 ± 0.0035,–
UCCUGGAUGUCCUUGCAUAGUAAUUAGUAA,0.0241 ± 0.0076,0.00153 ± 0.0046,0.0038 ± 0.0042,0.00143 ± 0.0041,0.00251 ± 0.0053,–

# Fetched one by one from the list above (two):
Sequence,"pre-steady-state target cleavage rate [1, 4]","pre-steady-state target cleavage rate [1, 5]","pre-steady-state target cleavage rate [2, 4]","pre-steady-state target cleavage rate [2, 5]","pre-steady-state target cleavage rate [3, 6]",pre-steady-state target cleavage rate ([3]; auxiliary factor: none (no Gtsf1))
UCCUGGAUGUGCUUGCAUAGUUAUUAGUAA,0.00196 ± 0.0044,0.00158 ± 0.0053,0.00129 ± 0.0066,0.00126 ± 0.0034,0.000336 ± 0.013,–
UCCUGGAUCAGCUUGGUAAGUAUUUAGUUA,0.0316 ± 0.0076,0.00588 ± 0.0023,0.00341 ± 0.0035,0.00186 ± 0.0034,0.000714 ± 0.0099,–
